Structures were worked out from names or drawings and are uncertain.

Amino acid sequences for entries named in this document (tags omitted).
UniProt P06730, whole entry: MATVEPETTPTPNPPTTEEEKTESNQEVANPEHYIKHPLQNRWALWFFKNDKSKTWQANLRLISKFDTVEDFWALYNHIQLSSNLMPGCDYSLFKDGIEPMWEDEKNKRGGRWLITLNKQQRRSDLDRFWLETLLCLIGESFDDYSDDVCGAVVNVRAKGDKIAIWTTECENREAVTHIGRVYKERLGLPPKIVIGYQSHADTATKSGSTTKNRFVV

What is called IC50 is the concentration needed to halve the response being measured.

This assay concerns the target recombinant eIF4E (Homo sapiens (Human), UniProt P06730). As to the kind of experiment: Fluorescence polarization competition assay for eIF4E binding potency. The note with it: read-out: elF4E FP, 75 nM recombinant eIF4E, 20 nM EDA-m7GDP-ATTO-550, IC50 class. The method, then:
Compounds were screened for eIF4E binding potency using a fluorescence polarization competition assay. All binding reactions were performed in fluorescence polarization buffer (FPB) containing 20 mM Tris pH 7.5, 100 mM NaCl, 1 mM DTT, and 0.02% Tween-20. Final binding reactions contained 75 nM recombinant eIF4E (Beryllium, custom order), 20 nM EDA-m^7GDP-ATTO-550 (Jena Bioscience, NU-827-550) and varying concentrations of the inhibitory compound of interest. Final DMSO concentration in each reaction was 1%.
eIF4E protein was pre-incubated with EDA-m^7GDP-ATTO-550 in FPB at 2× concentrations for 5 minutes prior to the addition of compounds. Compounds (100×) were prepared using 3-fold serial dilutions in 100% DMSO, and subsequently diluted 1:50 in FPB to produce 2× stocks. 50 μl of 2× eIF4E/EDA-m^7GDP-ATTO-550 were transferred to the wells of a 96-well half-area black flat bottom polystyrene plate. 50 μl of 2× test compound were added, and binding reactions were allowed to equilibrate for 30 minutes at room temperature while protected from light. The fluorescent polarization signal was detected using a Victor 2 multi-label counter (Perkin Elmer) and the concentration necessary to achieve inhibition of eIF4E/EDA-m^7GDP-ATTO-550 binding by 50% (IC50) was calculated using data from an 8-point compound dilution series. […]

Take `Cc1ncc(F)cc1-c1c(C(F)(F)F)cc2nc(C)n(CCOc3ccc(Cl)cc3-c3ccnc4ccsc34)c(=O)c2c1C#N` [compound 706]: the half-inhibitory concentration (IC50) lay in the range of 50 to 1000 nM.

Source of the values: US11286268B1, “EIF4E-inhibiting compounds and methods” (EFFECTOR THERAPEUTICS, INC., priority 2019, dated 2022).
